In the supplement of paper PMC10849652:
Some of the results follow.

By UniProt entry, the sequences of proteins in these tests, tags left out. Where a name states a change or a piece, a line headed by the entry shows the natural chain unless it says otherwise.
UniProt O75845: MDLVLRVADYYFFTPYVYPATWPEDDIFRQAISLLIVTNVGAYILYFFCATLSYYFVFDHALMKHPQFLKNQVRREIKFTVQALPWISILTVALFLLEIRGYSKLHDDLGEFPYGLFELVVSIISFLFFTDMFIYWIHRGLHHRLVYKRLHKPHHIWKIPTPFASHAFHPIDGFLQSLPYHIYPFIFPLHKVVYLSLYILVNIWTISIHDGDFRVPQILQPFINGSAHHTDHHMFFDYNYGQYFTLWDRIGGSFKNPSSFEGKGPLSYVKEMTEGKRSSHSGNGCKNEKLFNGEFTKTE
UniProt Q9Y512: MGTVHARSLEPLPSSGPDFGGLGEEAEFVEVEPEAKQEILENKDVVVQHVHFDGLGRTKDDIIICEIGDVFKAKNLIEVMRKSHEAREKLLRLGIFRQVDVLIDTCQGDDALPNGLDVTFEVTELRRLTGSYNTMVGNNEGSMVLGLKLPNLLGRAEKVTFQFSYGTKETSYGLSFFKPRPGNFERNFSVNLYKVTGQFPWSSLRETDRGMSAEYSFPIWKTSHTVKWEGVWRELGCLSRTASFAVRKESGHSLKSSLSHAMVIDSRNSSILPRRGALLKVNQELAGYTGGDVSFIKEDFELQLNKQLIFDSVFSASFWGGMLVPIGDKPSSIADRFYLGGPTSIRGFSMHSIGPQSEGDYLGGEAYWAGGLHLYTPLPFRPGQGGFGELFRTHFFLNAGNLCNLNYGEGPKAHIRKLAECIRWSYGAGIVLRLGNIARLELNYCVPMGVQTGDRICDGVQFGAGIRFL
UniProt Q96I15: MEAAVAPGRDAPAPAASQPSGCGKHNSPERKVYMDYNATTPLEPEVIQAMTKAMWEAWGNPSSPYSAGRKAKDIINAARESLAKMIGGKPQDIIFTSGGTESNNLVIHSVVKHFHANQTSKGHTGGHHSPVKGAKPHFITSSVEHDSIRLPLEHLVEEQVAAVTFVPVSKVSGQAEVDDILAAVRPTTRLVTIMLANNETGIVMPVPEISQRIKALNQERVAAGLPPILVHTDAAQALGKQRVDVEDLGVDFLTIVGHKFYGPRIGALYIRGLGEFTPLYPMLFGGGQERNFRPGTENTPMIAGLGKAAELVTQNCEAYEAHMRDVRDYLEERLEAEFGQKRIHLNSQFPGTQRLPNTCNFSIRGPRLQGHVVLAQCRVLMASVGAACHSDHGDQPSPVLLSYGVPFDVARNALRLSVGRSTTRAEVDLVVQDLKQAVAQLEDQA
UniProt Q9Y3I0: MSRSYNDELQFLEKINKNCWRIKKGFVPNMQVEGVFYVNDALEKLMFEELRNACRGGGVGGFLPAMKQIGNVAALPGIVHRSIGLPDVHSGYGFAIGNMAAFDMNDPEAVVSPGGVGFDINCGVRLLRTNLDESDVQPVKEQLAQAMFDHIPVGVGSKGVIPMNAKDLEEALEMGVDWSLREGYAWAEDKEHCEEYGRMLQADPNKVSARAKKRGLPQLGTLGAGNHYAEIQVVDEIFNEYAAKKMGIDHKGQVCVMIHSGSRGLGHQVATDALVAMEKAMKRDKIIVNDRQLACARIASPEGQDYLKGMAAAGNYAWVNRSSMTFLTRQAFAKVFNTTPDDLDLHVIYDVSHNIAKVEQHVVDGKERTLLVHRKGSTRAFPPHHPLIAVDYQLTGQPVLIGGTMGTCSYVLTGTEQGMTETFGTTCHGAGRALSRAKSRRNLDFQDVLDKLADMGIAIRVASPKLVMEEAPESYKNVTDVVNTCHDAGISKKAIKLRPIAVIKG
UniProt Q13296: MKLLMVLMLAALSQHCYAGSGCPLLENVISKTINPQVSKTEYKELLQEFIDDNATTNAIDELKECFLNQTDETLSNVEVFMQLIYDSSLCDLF
UniProt Q9Y265, whole entry, looked up: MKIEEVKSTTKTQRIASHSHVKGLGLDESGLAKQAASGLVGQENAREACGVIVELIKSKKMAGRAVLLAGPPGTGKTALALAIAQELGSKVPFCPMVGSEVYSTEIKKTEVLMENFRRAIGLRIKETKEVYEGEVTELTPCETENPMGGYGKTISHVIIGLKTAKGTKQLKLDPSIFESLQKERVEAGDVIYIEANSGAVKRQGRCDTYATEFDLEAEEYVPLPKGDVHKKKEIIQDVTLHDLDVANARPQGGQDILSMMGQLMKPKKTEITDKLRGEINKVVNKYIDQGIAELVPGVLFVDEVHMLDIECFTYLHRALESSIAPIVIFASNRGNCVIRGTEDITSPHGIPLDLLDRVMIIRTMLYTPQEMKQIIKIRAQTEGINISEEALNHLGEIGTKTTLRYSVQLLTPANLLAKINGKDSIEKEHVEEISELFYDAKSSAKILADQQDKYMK
UniProt O95197: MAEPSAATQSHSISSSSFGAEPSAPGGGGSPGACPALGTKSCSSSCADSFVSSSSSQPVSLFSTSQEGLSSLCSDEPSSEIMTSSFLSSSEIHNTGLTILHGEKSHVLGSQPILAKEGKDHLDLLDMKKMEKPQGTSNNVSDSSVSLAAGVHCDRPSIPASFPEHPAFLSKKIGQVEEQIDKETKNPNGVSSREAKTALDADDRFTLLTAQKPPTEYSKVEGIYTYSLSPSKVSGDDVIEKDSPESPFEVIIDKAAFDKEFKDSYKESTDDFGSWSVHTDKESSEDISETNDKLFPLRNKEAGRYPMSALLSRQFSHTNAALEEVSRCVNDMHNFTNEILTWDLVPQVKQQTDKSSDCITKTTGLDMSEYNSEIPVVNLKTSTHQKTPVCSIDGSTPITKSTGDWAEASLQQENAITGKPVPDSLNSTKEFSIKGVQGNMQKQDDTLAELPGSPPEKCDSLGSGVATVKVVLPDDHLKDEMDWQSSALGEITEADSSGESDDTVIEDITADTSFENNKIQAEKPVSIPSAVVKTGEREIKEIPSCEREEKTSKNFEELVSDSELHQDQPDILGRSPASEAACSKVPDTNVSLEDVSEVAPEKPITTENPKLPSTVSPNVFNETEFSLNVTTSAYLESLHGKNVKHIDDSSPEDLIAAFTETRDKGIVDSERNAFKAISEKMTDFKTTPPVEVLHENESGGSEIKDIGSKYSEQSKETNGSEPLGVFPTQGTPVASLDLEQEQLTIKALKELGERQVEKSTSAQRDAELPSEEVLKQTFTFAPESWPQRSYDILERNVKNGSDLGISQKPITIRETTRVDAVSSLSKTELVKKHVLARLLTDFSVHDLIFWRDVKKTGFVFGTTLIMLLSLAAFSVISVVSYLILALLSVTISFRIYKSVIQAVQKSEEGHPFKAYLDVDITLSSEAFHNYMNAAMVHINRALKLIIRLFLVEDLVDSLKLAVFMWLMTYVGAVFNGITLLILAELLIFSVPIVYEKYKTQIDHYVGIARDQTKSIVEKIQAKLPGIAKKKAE
UniProt Q15424: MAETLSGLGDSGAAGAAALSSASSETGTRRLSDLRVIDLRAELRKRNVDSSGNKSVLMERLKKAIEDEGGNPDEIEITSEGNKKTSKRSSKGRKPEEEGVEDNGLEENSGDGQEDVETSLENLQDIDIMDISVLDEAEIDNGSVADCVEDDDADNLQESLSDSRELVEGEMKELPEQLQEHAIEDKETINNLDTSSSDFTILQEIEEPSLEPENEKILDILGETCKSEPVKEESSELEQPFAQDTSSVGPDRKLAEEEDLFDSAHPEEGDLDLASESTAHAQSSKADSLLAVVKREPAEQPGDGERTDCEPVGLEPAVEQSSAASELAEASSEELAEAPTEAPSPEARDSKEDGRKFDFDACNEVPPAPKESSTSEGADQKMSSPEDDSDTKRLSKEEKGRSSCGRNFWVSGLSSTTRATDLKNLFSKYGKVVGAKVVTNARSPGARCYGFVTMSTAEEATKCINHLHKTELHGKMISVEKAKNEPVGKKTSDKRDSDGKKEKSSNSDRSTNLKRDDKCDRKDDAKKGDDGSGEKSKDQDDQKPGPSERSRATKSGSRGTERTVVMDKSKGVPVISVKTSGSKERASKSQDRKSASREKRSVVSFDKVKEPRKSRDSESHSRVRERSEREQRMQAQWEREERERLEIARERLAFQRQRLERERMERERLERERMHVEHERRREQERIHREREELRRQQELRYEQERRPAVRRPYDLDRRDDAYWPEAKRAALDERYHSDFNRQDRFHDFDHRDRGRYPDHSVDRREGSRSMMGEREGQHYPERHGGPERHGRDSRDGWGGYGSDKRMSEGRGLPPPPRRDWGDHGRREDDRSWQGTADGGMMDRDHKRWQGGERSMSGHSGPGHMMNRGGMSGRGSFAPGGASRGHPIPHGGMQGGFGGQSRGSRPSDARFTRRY
UniProt P82979: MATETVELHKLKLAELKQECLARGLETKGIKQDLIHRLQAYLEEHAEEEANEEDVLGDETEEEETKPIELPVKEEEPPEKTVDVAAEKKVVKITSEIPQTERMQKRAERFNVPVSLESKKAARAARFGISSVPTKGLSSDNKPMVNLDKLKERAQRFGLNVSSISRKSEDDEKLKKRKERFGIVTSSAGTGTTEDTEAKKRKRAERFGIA
UniProt Q9NR31: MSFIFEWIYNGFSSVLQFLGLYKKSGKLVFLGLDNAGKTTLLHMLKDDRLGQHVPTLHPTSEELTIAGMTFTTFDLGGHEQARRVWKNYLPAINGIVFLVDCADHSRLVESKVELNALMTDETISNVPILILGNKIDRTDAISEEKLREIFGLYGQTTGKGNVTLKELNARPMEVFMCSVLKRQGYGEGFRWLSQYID
UniProt Q9Y6U3: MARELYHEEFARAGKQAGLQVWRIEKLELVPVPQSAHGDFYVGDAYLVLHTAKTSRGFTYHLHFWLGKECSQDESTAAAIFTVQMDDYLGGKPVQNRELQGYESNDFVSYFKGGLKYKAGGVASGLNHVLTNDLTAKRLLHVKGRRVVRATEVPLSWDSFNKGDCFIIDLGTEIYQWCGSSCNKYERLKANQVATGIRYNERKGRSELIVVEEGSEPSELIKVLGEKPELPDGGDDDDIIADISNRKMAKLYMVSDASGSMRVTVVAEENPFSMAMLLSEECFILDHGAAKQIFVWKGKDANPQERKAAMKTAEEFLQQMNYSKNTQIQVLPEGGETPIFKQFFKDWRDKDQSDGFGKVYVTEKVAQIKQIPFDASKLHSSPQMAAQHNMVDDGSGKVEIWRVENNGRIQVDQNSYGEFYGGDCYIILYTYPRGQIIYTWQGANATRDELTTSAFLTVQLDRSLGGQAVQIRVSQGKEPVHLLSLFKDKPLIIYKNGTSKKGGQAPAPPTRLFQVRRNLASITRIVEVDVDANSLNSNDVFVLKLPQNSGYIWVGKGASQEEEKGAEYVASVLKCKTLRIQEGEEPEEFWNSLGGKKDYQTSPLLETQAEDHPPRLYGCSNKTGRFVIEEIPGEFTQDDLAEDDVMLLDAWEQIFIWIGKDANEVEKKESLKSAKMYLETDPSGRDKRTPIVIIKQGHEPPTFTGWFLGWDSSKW
UniProt Q9NQC3: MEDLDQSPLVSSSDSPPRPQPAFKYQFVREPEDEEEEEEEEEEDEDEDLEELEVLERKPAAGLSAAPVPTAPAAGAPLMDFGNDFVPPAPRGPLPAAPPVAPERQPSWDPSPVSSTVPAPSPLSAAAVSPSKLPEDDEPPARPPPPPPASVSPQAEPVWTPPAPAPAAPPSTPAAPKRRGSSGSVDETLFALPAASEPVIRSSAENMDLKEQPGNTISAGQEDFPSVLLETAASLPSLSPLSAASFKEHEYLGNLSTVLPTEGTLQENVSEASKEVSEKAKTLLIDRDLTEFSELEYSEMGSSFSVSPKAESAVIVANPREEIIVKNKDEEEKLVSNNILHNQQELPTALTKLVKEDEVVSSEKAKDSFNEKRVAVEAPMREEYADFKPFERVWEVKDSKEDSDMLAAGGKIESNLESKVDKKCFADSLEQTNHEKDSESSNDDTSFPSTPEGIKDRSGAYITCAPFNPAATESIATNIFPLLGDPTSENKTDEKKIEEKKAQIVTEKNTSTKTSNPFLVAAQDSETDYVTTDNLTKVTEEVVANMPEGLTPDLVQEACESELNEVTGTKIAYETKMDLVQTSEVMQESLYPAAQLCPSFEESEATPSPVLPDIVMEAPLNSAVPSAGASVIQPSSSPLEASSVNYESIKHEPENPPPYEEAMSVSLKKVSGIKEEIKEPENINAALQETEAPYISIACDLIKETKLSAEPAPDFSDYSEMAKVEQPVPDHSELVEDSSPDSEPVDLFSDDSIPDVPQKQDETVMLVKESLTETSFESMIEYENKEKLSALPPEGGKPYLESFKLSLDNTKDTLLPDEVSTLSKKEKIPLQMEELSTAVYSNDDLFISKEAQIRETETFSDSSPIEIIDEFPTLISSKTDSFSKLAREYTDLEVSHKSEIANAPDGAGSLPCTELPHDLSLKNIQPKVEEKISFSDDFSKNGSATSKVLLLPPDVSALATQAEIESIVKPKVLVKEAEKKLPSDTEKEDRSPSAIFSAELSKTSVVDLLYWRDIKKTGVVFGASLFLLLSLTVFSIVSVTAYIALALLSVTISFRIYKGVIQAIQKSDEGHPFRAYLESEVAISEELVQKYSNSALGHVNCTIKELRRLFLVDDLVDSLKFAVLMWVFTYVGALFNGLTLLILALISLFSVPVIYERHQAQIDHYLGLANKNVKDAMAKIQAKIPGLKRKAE

What was measured:
Experiment in all cases: log2 fold change, soluble protein after heating vs DMSO (PISA); higher = thermal stabilisation; K562 cells, 10 uM, 30 min; active = over 0.2 and 3.5 SD of the protein, either way, in both replicates (recomputed)
[1] = compound: CC[C@@H]1C(=O)N(C)c2cnc(Nc3ccc(C(=O)NC4CCN(C)CC4)cc3OC)nc2N1C1CCCC1
Procedure, shortened: (§1)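 Thermal stability values are relative to control samples and come from duplicates. They are expressed as log2 fold changes. For measurement, K562 cells (2×10^6 cells/mL) received 10 μM compound for 30 min, and aliquots were heated for 3 min over 48°C-58°C, pooled, and extracted at 4°C in PBS with 0.5% NP-40. Soluble protein, the supernatant after 21,000xg for 90 min, was quantified by TMTpro 16plex LC-MS/MS with equalised channel sums.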

volasertib = compound: CC[C@@H]1C(=O)N(C)c2cnc(Nc3ccc(C(=O)N[C@H]4CC[C@H](N5CCN(CC6CC6)CC5)CC4)cc3OC)nc2N1C(C)C [volasertib]
Procedure, shortened: as §1

[2] = compound: CC[C@H](C)N1C=C(C2=C(C=C(C=C21)C3=CN=C(C=C3)N4CCNCC4)C(=O)NCC5=C(C=C(NC5=O)C)C)C
Procedure, shortened: as §1

epoxomicin = compound: CC[C@H](C)[C@@H](C(=O)N[C@@H]([C@@H](C)O)C(=O)N[C@@H](CC(C)C)C(=O)[C@]1(CO1)C)NC(=O)[C@H]([C@@H](C)CC)N(C)C(=O)C [epoxomicin]
Procedure, shortened: as §1

[3] = compound: CCn1c(C(=O)N(C2CC2)C2CC2)cc2c3c(ncn3C)c(Nc3cc(C)n(C)n3)nc21
Procedure, shortened: as §1

[4] = compound: CCn1cc(-c2ccnc3[nH]c(-c4cccc(CN(C)C)c4)cc23)c(-c2ccc(NC(=O)N(C)C)cc2)n1
Procedure, shortened: as §1

[5] = compound: CN(C)CC(=O)Nc1ccc2[nH]c(=O)c3ccccc3c2c1
Procedure, shortened: as §1

rosiglitazone = compound: CN(CCOC1=CC=C(C=C1)C[C@H]2C(=O)NC(=O)S2)C3=CC=CC=N3 (racemic) [rosiglitazone]
Procedure, shortened: as §1

[6] = compound: CN1C2=C(C3=C1C(=O)N(N=C3)CC4=CC(=CC=C4)N)SC(=C2)S(=O)C
Procedure, shortened: as §1

[7] = compound: CN1CCC(CNc2ccc3ncc(-c4cccc(OC(F)(F)F)c4)n3n2)CC1
Procedure, shortened: as §1

Measured: log2 fold change

SEC11C (UniProt Q9BY50)
inactive: [1] -0.005 | volasertib -0.054 | [2] 0.028 | epoxomicin 0.103 | [3] 0.041 | [4] 0.024 | [5] 0.006 | rosiglitazone 0.047 | [6] -0.012 | [7] -0.111

SDHD (UniProt O14521)
inactive: [1] 0.025 | volasertib 0.001 | [2] -0.113 | epoxomicin 0.235 | [3] 0.029 | [4] -0.136 | [5] 0.207 | rosiglitazone -0.083 | [6] -0.081 | [7] 0.121

SCAMP4 (UniProt Q969E2)
inactive: [1] 0.062 | volasertib -0.004 | [2] -0.061 | epoxomicin -0.03 | [3] -0.039 | [4] -0.074 | [5] -0.024 | rosiglitazone 0.002 | [6] -0.029 | [7] -0.005

SDHA (UniProt P31040)
inactive: [1] -0.028 | volasertib 0.071 | [2] -0.039 | epoxomicin 0.008 | [3] -0.003 | [4] -0.029 | [5] 0 | rosiglitazone 0.005 | [6] -0.031 | [7] 0.016

SCAP (UniProt Q12770)
inactive: [1] 0.009 | volasertib -0.207 | [2] 0.005 | epoxomicin 0.004 | [3] 0.019 | [4] -0.054 | [5] -0.022 | rosiglitazone 0.046 | [6] 0.016 | [7] 0.067

SC5D (UniProt O75845)
inactive: [1] 0.111 | volasertib 0.098 | [2] -0.034 | epoxomicin 0.026 | [3] 0.048 | [4] 0.019 | [5] -0.032 | rosiglitazone -0.022 | [6] 0.019 | [7] -0.058

SDR39U1 (UniProt Q9NRG7)
inactive: [1] 0.35 | volasertib 0.24 | [2] -0.047 | epoxomicin -0.047 | [3] -0.022 | [4] 0.092 | [5] -0.112 | rosiglitazone -0.024 | [6] -0.069 | [7] -0.037

RYBP (UniProt Q8N488)
inactive: [1] 0.059 | volasertib -0.013 | [2] -0.059 | epoxomicin 0.029 | [3] -0.046 | [4] 0.062 | [5] -0.011 | rosiglitazone -0.032 | [6] 0.037 | [7] -0.034

RRP15 (UniProt Q9Y3B9)
inactive: [1] 0.014 | volasertib 0.046 | [2] -0.069 | epoxomicin -0.057 | [3] 0.044 | [4] 0.005 | [5] -0.012 | rosiglitazone -0.068 | [6] 0.002 | [7] 0.049

SAMM50 (UniProt Q9Y512)
inactive: [1] 0.007 | volasertib 0.033 | [2] -0.004 | epoxomicin 0.007 | [3] 0.053 | [4] -0.019 | [5] -0.021 | rosiglitazone -0.013 | [6] -0.025 | [7] -0.047

SCLY (UniProt Q96I15)
inactive: [1] 0.037 | volasertib -0.012 | [2] 0 | epoxomicin -0.011 | [3] 0.028 | [4] -0.027 | [5] -0.004 | rosiglitazone 0.017 | [6] -0.079 | [7] 0.032

RTCB (UniProt Q9Y3I0)
inactive: [1] -0.142 | volasertib -0.153 | [2] -0.027 | epoxomicin -0.012 | [3] 0.02 | [4] 0.009 | [5] -0.025 | rosiglitazone -0.006 | [6] 0.013 | [7] -0.044

RWDD1 (UniProt Q9H446)
inactive: [1] -0.075 | volasertib -0.122 | [2] 0.015 | epoxomicin 0.041 | [3] 0.05 | [4] -0.035 | [5] 0.05 | rosiglitazone -0.001 | [6] -0.066 | [7] 0.02

SAMHD1 (UniProt Q9Y3Z3)
inactive: [1] -0.014 | volasertib -0.007 | [2] 0.018 | epoxomicin 0.003 | [3] -0.046 | [4] -0.015 | [5] -0.003 | rosiglitazone 0 | [6] -0.03 | [7] -0.119

SCGB2A2 (UniProt Q13296)
inactive: [1] -0.031 | volasertib -0.123 | [2] 0.106 | epoxomicin 1.13 | [4] 0.108 | [5] -0.304 | rosiglitazone 1.12 | [7] -0.743

SCFD1 (UniProt Q8WVM8)
inactive: [1] -0.039 | volasertib -0.154 | [2] 0.095 | epoxomicin 0.024 | [3] -0.037 | [4] -0.005 | [5] 0.028 | rosiglitazone 0.047 | [6] 0.016 | [7] -0.042

SCP2 (UniProt P22307)
inactive: [1] 0.079 | volasertib -0.043 | [2] -0.011 | epoxomicin 0.006 | [3] 0.002 | [4] -0.012 | [5] 0.023 | rosiglitazone 0 | [6] -0.057 | [7] 0.042

RUVBL1 (UniProt Q9Y265)
inactive: [1] 0.069 | volasertib 0.242 | [2] -0.052 | epoxomicin -0.005 | [3] 0.019 | [4] 0 | [5] -0.028 | rosiglitazone -0.012 | [6] -0.026 | [7] 0.11

SDF2L1 (UniProt Q9HCN8)
inactive: [1] 0.008 | volasertib 0.06 | [2] -0.01 | epoxomicin -0.033 | [3] -0.025 | [4] -0.018 | [5] -0.018 | rosiglitazone 0.01 | [6] -0.004 | [7] 0.037

RTN3 isoform 5 (UniProt O95197)
inactive: [1] 0.047 | volasertib -0.032 | [2] -0.054 | epoxomicin 0.056 | [3] 0.011 | [5] 0.159 | rosiglitazone 0.084 | [6] -0.127

SAFB isoform 3 (UniProt Q15424)
inactive: [1] 0.049 | volasertib 0.2 | [2] -0.083 | epoxomicin -0.093 | [3] -0.036 | [4] 0.239 | [5] -0.029 | rosiglitazone -0.095 | [6] 0.261 | [7] 0.266

SARNP (UniProt P82979)
inactive: [1] 0.039 | volasertib 0.181 | [2] -0.109 | epoxomicin -0.038 | [3] 0.034 | [4] 0.037 | [5] -0.088 | rosiglitazone -0.068 | [6] 0.001 | [7] -0.008

SARG (UniProt Q9BW04)
inactive: [1] 0.03 | volasertib 0.011 | [2] -0.038 | epoxomicin -0.001 | [3] -0.08 | [4] -0.034 | [5] -0.017 | rosiglitazone -0.006 | [6] 0.023 | [7] -0.055

SAR1A (UniProt Q9NR31)
inactive: [1] 0.03 | volasertib 0.169 | [2] -0.011 | epoxomicin 0.118 | [3] -0.019 | [4] -0.024 | [5] 0.047 | rosiglitazone 0.008 | [6] -0.04 | [7] 0.12

7 neighbouring records out of the list so far, for reference:
SCGB2A2 (UniProt Q13296)
inactive: [1] -0.031 | volasertib -0.123 | [2] 0.106 | epoxomicin 1.13 | [4] 0.108 | [5] -0.304 | rosiglitazone 1.12 | [7] -0.743

SCFD1 (UniProt Q8WVM8)
inactive: [1] -0.039 | volasertib -0.154 | [2] 0.095 | epoxomicin 0.024 | [3] -0.037 | [4] -0.005 | [5] 0.028 | rosiglitazone 0.047 | [6] 0.016 | [7] -0.042

SCP2 (UniProt P22307)
inactive: [1] 0.079 | volasertib -0.043 | [2] -0.011 | epoxomicin 0.006 | [3] 0.002 | [4] -0.012 | [5] 0.023 | rosiglitazone 0 | [6] -0.057 | [7] 0.042

RUVBL1 (UniProt Q9Y265)
inactive: [1] 0.069 | volasertib 0.242 | [2] -0.052 | epoxomicin -0.005 | [3] 0.019 | [4] 0 | [5] -0.028 | rosiglitazone -0.012 | [6] -0.026 | [7] 0.11

SDF2L1 (UniProt Q9HCN8)
inactive: [1] 0.008 | volasertib 0.06 | [2] -0.01 | epoxomicin -0.033 | [3] -0.025 | [4] -0.018 | [5] -0.018 | rosiglitazone 0.01 | [6] -0.004 | [7] 0.037

RTN3 isoform 5 (UniProt O95197)
inactive: [1] 0.047 | volasertib -0.032 | [2] -0.054 | epoxomicin 0.056 | [3] 0.011 | [5] 0.159 | rosiglitazone 0.084 | [6] -0.127

SAFB isoform 3 (UniProt Q15424)
inactive: [1] 0.049 | volasertib 0.2 | [2] -0.083 | epoxomicin -0.093 | [3] -0.036 | [4] 0.239 | [5] -0.029 | rosiglitazone -0.095 | [6] 0.261 | [7] 0.266

Additional results.

SCIN (UniProt Q9Y6U3)
inactive: [1] -0.094 | volasertib -0.197 | [2] 0.043 | epoxomicin 0 | [3] -0.025 | [4] -0.067 | [5] 0.02 | rosiglitazone 0.059 | [6] 0.036 | [7] -0.165

RTCA (UniProt O00442)
inactive: [1] -0.055 | volasertib -0.099 | [2] -0.018 | epoxomicin 0.029 | [3] 0.02 | [4] -0.035 | [5] 0.023 | rosiglitazone 0.006 | [6] -0.001 | [7] -0.08

RTN2 (UniProt O75298)
inactive: [1] 0.035 | volasertib -0.043 | [2] 0.068 | epoxomicin 0.084 | [3] 0.049 | [5] 0.001 | rosiglitazone -0.011 | [6] -0.065

RTN4 isoform 5 (UniProt Q9NQC3)
inactive: [1] -0.202 | volasertib -0.049 | [2] 0.014 | epoxomicin 0.13 | [3] 0.251 | [4] 0.022 | [5] 0.017 | [6] -0.134 | [7] 0.056

RSF1 (UniProt Q96T23)
inactive: [1] -0.138 | volasertib -0.358 | [2] 0.012 | epoxomicin 0.165 | [4] -0.098 | [5] 0.141 | [6] -0.008 | [7] -0.109

RTN3 (UniProt O95197)
inactive: [1] -0.011 | volasertib -0.015 | [2] -0.034 | epoxomicin -0.016 | [3] -0.002 | [4] 0 | [5] 0.005 | rosiglitazone -0.011 | [6] -0.081 | [7] 0.059
